Reference: article PMC7977452
No constants are given. Whether binding was seen depends on the method and setting. Some entries that bind do so weakly or less than the wild type.

Sequences of proteins named here, by UniProt entry; tags and fusion partners are left off. Residues count along the entry.
UniProt Q8VDD5, residues 1-838: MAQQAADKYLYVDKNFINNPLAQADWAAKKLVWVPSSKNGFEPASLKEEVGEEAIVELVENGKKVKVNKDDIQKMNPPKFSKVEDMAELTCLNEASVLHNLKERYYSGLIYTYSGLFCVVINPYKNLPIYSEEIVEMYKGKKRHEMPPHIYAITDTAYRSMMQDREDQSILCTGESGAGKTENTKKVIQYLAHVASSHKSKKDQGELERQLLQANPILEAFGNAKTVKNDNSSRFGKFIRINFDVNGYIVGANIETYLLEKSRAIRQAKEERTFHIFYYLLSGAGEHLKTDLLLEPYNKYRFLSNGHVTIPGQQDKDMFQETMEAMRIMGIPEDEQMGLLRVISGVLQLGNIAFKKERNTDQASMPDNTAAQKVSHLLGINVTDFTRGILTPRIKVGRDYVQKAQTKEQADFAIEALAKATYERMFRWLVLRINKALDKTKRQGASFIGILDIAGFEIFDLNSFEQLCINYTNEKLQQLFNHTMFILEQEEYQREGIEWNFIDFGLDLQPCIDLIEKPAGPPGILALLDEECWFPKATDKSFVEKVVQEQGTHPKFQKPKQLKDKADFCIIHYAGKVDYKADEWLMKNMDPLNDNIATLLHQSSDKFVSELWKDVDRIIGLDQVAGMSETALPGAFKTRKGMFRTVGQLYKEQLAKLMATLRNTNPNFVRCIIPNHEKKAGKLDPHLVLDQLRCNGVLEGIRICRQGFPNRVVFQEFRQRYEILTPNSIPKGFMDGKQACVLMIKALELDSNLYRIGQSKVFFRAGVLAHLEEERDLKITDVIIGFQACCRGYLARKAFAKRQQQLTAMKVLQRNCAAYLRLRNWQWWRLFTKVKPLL

Molecular target: GST-Trio-GEFD1 (amino acids 1203-1813) (mouse) (UniProt Q0KL02)
Assay: pull-down; purified His-Myh9 mixed with purified GST or GST-Trio, 4 °C overnight with rotation, washed 3 times with PBS; western blot with anti-His and anti-GST; both purified

For “His-Myh9 head domain (amino acids 1-838) (from UniProt Q8VDD5 1-838) (domain or fragment)”, the binding was “binds”.
